The source of these data is the supplement of paper PMC11006884.

By UniProt entry, the sequences of proteins in these tests, tags left out. Where a name states a change or a piece, a line headed by the entry shows the natural chain unless it says otherwise.
UniProt Q3KQU3: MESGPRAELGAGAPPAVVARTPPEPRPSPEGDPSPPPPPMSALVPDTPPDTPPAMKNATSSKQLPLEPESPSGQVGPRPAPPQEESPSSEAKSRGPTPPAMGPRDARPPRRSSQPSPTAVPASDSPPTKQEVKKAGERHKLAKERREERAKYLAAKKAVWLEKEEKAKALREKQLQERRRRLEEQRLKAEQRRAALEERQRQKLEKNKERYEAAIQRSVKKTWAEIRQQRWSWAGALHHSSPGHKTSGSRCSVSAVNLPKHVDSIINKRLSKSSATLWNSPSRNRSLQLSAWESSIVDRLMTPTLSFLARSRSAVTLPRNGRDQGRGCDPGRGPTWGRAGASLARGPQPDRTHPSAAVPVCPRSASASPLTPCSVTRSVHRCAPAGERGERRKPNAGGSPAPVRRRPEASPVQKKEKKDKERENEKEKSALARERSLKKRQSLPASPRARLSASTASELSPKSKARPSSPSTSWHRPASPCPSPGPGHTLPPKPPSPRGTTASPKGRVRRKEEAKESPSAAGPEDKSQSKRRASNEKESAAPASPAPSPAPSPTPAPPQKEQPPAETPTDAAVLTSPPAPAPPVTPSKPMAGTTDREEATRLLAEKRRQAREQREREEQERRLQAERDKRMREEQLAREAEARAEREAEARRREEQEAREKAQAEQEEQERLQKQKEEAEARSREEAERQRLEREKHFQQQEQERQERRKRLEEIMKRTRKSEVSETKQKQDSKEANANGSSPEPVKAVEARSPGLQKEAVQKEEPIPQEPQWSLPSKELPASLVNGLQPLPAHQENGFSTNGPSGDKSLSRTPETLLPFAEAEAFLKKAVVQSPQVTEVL
UniProt Q4G0F5, whole entry: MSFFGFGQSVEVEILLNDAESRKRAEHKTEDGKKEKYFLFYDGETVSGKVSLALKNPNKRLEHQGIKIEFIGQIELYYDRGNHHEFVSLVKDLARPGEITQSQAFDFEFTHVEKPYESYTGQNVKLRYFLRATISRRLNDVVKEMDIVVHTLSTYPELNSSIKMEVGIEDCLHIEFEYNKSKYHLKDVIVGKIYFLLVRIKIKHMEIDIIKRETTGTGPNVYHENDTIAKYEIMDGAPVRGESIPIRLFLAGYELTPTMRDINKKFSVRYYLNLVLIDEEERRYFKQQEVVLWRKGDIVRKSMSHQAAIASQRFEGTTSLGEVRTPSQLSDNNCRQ
UniProt Q3LXA3: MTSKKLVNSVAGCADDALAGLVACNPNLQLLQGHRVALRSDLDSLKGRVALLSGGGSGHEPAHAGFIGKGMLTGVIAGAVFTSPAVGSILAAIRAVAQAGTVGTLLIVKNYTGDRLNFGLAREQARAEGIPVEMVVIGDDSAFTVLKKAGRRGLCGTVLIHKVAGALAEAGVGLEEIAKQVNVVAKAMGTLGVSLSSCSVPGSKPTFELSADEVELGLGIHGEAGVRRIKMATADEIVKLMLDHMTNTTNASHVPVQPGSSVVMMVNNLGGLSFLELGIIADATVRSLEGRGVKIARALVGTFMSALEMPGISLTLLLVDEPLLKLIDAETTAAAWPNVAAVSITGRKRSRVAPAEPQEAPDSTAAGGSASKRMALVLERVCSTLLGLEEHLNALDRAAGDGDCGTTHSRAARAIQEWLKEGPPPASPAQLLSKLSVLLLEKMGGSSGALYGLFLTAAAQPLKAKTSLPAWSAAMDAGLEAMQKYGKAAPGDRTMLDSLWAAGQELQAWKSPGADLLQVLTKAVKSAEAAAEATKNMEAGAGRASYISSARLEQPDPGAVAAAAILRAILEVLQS
UniProt Q15048: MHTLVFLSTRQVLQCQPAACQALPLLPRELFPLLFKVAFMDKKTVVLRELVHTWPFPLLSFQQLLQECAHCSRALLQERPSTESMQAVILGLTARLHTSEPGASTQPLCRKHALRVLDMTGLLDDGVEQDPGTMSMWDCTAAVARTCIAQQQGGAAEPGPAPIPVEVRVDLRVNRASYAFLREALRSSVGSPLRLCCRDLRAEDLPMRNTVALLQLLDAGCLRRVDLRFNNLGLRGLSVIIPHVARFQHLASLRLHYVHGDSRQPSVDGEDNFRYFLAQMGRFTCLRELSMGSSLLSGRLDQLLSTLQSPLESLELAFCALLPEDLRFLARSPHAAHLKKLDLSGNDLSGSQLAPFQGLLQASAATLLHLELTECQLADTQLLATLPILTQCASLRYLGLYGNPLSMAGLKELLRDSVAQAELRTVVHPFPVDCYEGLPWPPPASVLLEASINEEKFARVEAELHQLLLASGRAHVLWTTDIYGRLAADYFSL
UniProt Q15233: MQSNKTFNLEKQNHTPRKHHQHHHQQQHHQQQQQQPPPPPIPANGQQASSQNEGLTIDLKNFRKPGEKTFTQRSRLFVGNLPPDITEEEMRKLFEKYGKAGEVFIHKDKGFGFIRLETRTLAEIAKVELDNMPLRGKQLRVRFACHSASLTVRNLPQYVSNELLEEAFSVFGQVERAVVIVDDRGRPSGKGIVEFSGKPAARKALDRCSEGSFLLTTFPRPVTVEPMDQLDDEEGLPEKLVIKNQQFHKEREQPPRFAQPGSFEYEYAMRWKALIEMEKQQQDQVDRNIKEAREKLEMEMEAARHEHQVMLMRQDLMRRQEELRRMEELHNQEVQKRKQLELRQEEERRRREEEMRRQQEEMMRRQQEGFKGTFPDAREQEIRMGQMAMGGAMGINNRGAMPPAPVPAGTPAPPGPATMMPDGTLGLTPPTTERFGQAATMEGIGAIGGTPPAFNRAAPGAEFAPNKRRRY
UniProt Q16774: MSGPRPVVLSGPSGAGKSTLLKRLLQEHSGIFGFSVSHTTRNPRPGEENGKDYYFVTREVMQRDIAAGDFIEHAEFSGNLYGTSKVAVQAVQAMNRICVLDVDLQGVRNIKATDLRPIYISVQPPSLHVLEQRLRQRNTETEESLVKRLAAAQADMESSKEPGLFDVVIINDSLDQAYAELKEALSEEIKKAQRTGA
UniProt Q15654: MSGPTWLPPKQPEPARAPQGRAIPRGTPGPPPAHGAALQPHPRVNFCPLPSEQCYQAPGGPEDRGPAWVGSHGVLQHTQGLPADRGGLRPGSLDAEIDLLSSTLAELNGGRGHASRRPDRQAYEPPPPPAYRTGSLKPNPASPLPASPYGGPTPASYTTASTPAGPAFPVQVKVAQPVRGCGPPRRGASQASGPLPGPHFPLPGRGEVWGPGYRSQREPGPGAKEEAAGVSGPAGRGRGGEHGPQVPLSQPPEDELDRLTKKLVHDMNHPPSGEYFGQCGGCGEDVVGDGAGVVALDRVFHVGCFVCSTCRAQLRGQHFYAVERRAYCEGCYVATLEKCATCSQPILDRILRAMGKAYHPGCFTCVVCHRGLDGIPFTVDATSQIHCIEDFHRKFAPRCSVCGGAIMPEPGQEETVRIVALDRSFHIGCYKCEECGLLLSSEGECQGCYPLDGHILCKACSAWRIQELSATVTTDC
UniProt Q15643: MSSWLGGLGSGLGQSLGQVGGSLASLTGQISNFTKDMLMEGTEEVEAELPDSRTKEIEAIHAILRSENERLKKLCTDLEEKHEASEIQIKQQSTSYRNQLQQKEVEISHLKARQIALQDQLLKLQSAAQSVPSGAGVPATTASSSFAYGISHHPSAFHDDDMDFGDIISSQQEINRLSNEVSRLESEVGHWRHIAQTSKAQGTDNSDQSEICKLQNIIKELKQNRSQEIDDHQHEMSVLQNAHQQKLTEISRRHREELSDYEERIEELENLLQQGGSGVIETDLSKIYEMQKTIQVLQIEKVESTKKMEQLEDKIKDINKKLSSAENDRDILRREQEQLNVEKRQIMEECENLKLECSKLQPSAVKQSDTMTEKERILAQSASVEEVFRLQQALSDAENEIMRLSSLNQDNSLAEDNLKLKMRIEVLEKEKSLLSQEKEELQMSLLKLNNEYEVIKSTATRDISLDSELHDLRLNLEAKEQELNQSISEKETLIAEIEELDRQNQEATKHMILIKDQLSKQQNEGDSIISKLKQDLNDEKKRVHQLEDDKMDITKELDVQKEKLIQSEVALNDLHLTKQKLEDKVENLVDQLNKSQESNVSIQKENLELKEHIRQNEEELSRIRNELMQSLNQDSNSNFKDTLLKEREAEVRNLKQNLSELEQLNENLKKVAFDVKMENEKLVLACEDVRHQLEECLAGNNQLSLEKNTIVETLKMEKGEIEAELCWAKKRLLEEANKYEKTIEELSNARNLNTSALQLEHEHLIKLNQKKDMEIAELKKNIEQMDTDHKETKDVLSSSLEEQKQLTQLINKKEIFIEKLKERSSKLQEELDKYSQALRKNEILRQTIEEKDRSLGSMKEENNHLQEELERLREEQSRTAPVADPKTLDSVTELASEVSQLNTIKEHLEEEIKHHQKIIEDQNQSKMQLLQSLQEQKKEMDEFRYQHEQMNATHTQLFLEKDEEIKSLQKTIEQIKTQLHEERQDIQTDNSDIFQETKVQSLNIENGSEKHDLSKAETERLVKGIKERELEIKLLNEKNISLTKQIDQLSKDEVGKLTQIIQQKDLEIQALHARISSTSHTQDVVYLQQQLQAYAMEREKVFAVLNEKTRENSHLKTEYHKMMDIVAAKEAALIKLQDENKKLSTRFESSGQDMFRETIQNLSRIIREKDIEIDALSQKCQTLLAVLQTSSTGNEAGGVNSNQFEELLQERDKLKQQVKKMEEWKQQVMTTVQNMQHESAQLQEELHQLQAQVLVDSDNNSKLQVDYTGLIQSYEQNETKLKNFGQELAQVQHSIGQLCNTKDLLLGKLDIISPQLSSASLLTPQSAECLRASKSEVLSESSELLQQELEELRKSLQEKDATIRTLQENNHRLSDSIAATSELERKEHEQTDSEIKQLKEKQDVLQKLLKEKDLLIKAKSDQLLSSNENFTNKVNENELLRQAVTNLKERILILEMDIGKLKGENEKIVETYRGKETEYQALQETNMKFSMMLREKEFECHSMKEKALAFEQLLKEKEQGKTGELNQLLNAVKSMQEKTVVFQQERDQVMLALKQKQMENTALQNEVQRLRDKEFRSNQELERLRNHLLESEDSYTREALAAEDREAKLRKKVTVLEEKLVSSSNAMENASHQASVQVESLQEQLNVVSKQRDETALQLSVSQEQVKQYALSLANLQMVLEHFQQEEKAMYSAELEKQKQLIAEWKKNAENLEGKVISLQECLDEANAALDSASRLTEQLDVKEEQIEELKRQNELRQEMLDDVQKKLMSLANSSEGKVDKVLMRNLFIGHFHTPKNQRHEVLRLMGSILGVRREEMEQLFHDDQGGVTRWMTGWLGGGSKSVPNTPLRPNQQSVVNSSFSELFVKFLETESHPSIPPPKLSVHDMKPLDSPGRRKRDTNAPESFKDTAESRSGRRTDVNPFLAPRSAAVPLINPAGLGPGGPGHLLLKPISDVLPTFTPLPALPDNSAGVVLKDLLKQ
UniProt Q15029: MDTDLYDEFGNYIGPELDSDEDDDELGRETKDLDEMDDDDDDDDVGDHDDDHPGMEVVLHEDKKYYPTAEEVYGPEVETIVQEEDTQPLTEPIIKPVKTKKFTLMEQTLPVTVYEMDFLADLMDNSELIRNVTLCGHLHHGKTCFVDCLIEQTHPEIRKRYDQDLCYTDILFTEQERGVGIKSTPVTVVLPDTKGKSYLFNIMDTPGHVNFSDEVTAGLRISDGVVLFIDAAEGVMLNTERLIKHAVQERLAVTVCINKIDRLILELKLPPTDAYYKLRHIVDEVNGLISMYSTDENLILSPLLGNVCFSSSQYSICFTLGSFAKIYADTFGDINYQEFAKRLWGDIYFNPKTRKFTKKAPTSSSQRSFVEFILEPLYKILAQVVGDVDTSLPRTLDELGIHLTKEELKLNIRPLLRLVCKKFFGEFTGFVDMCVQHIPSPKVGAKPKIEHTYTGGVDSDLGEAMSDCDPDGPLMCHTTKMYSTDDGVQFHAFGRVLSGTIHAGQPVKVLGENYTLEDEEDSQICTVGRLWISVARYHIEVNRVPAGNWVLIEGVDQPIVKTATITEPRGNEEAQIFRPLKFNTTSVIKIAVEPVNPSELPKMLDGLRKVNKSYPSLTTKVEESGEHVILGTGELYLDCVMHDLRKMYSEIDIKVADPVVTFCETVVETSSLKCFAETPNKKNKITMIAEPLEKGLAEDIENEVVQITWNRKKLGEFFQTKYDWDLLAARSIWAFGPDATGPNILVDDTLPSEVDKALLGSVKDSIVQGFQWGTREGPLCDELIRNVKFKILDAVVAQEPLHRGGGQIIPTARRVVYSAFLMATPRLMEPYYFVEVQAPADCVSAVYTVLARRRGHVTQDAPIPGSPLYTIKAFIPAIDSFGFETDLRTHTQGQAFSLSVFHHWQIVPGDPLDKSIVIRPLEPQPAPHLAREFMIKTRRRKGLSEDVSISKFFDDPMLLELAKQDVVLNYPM
UniProt Q15527: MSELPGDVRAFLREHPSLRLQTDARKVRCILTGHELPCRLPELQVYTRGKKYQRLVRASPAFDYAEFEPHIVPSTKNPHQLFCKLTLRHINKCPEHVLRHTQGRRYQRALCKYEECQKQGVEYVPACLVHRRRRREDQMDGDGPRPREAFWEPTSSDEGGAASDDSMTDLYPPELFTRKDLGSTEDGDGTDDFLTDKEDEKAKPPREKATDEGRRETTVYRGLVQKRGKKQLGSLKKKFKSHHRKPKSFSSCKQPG

This list holds what a sample rich in targets with a hit left over. This is a noisy data set. Only a part is listed here, and it is no random draw.

Compound in this assay: COC(=O)/C=C/c1ccccc1 [methyl cinnamate]
Put plainly: log2 ratio of iodoacetamide-alkyne labeling of the cysteine site, DMSO over compound (competition); higher = stronger covalent engagement of the cysteine by the compound, active = 1 or more. Particulars: 500 µM; treatment time 1 h; system: HEK293T cell lysate. The method, boiled down: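 HEK293T lysate at 2 mg/mL was treated with vehicle or electrophile (500 µM) for 1 h at ambient temperature, then labelled with iodoacetamide alkyne (1 h), clicked to sCIP-TMT reagents, pooled, digested with trypsin overnight at 37 °C, enriched on streptavidin and eluted with acid. Peptides were analysed by Orbitrap Eclipse LC-MS/MS with FAIMS and quantified in FragPipe, using duplicate channels and three replicates, with cysteines quantified in only one replicate excluded. The log2 competition ratio for each cysteine is the mean control-channel reporter intensity divided by the mean compound-channel reporter intensity.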
In the case of LRRC41 C792 (UniProt Q15345), the “log2 ratio of iodoacetamide-alkyne labeling” value (“log2 ratio” for short) was inactive: 0.115.

For MAP7D1 C251 (UniProt Q3KQU3), the “log2 ratio” value is inactive: 0.0544.

On to SLC39A14 C118 (UniProt Q15043), for which the “log2 ratio” value was inactive: 0.0567.

For VPS26B C334 (UniProt Q4G0F5), the “log2 ratio” value was inactive: 0.648.

For UniProt Q3LXA3_C13, the “log2 ratio” value is inactive: -0.448.

As for LRRC14 C221 (UniProt Q15048), the “log2 ratio” value was inactive: 0.131.

As to DBN1 C96 (UniProt Q16643), the “log2 ratio” value is inactive: 0.218.

For the target UniProt Q15365_C118, the “log2 ratio” value is inactive: 0.52.

As to AMOT C741 (UniProt Q4VCS5), the “log2 ratio” value is inactive: 0.0438.

For the target NONO C145 (UniProt Q15233), the “log2 ratio” value was inactive: 0.0848.

In the case of CEP55 C159 (UniProt Q53EZ4), the “log2 ratio” value was inactive: -0.261.

On to PCBP2 C217 (UniProt Q15366), for which the “log2 ratio” value was inactive: 0.303.

For GUK1 C98 (UniProt Q16774), the “log2 ratio” value is inactive: -0.0425.

In the case of TRIP6 C399 (UniProt Q15654), the “log2 ratio” value is inactive: 0.115.

Take UniProt Q15365_C201: the “log2 ratio” value is inactive: 0.0112.

For TRIP11 C1722 (UniProt Q15643), the “log2 ratio” value is inactive: 0.107.

GLYR1 C356 (UniProt Q49A26): the “log2 ratio” value is inactive: 0.102.

In the case of HS1BP3 C287 (UniProt Q53T59), the “log2 ratio” value was inactive: 0.373.

For EFTUD2 C144 (UniProt Q15029), the “log2 ratio” value was inactive: 0.0118.

Turning to SURF2 C111 (UniProt Q15527), the “log2 ratio” value is inactive: 0.231.

Regarding EFTUD2 C166 (UniProt Q15029), the “log2 ratio” value was inactive: 0.0583.

For the target PDIA6 C55 (UniProt Q15084), the “log2 ratio” value is inactive: 0.00454.
